Assay results as given in article PMC6148051.
These are yes or no findings as the source states them, for the method shown. Binding seen in cells or lysates may run through a third protein. Some binding calls cover weakened binding; strength is not graded here.

Key:
[1] = target: SIRT6 (endogenous) (human (endogenous in HCT116)) (UniProt Q8N6T7); assay: co-IP; endogenous proteins of HCT116 cells, with or without 0.2 mM palmitic acid for 18 h; IP with anti-SIRT6, blot with anti-p53 or anti-RNAP II
GFP-tagged SIRT6 = GFP-tagged SIRT6 (UniProt Q8N6T7); assay: co-IP; HCT116 cells co-transfected with GFP-SIRT6 and FLAG-p53, with or without 0.2 mM palmitic acid for 18 h; IP with anti-FLAG or anti-GFP, blot with anti-GFP or anti-FLAG

binding [1] | binding (GFP-tagged SIRT6) | Substance
binds | – | p53 (endogenous) (from UniProt P04637 1-393)
– | binds | FLAG-tagged p53 (from UniProt P04637 1-393)
